Laboratory results: PMC12488978
No constants are given. Whether binding was seen depends on the method and setting. In cells and extracts the contact can be indirect. Some results given as binding are weak or reduced against the parent protein; the word gives no strength.

Biological target: HA-SpdyA (Speedy A with an HA tag knocked in at the endogenous Spdya gene) (mouse (endogenous in testis)) (UniProt Q5IBH7)
Test: co-IP; anti-HA agarose on 3 mg testis protein lysate of PD17 Spdya^HA/HA mice (Spdya^+/+ as control), EBN++ buffer (80 mM beta-glycerophosphate pH 7.3, 20 mM EGTA, 15 mM MgCl2, 150 mM NaCl, 1 mg/ml ovalbumin, 0.5% NP-40), 4 °C overnight; immunoblot

- binding: binds
Substance: CDK2 (endogenous) (from UniProt P97377 1-346) (enzyme)
